# In US20060052582A1, “Identification of inhibitors of mitosis” (priority 2002, published 2006):
# Chains of the proteins cited; added tags and fusions are not shown. Lines headed by an entry give the natural chain unless they say otherwise; changes in a name come on top.
# UniProt Q8TD19: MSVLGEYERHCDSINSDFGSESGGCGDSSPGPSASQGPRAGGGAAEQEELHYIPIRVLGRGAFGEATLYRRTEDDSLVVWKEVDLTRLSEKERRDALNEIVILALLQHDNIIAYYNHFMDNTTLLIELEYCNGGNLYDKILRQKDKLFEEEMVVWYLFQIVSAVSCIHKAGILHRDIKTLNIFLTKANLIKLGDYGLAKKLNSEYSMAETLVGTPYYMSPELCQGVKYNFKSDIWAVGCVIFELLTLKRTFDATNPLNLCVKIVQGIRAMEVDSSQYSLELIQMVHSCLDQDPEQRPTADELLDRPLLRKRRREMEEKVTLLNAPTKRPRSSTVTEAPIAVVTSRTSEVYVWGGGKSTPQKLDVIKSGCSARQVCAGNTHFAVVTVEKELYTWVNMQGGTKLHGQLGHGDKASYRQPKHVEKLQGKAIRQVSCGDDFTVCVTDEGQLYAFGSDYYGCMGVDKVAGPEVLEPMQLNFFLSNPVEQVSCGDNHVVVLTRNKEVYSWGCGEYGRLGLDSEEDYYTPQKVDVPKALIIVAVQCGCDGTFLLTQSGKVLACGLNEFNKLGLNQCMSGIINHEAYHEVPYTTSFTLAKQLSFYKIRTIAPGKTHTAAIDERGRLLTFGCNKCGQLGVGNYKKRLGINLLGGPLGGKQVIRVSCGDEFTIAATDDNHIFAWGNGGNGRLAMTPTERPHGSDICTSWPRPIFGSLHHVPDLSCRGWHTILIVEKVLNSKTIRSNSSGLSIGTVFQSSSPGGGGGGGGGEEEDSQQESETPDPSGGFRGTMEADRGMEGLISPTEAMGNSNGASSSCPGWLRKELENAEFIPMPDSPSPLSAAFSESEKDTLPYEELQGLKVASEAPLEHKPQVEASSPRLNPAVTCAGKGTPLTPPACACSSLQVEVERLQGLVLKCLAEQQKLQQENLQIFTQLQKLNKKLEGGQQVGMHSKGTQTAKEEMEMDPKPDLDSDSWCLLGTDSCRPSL
# These are yes or no findings as the source states them, for the method shown. Some binding calls cover weakened binding; strength is not graded here. Sequences can lack the tags named with a protein.
# How the values were obtained:
# [1] = target: T1, HA Nercc (1-391) (human) (UniProt Q8TD19); assay: anti-FLAG immunoprecipitation from HEK293 cells, anti-HA blot
# T1 sequence: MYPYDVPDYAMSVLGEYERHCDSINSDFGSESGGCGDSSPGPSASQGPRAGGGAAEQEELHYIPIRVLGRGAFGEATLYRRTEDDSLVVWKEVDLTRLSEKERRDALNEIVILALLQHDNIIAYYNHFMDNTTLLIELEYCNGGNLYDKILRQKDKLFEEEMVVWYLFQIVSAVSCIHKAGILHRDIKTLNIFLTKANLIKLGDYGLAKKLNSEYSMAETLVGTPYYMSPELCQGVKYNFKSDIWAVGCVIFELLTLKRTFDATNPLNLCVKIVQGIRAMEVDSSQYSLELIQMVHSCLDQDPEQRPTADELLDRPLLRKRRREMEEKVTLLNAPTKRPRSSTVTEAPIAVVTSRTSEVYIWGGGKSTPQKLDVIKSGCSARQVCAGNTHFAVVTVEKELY
# [2] = target: T1, HA Nercc (1-391) (human); assay: anti-FLAG immunoprecipitation from HEK293 cells, anti-HA blot (figure legend)
substance,measurement,setting,value
FLAG Nercc (338-739) (from UniProt Q8TD19 338-739),binding,[1],binds
same,binding,[2],binds
